Data source: PubChem BioAssay AID1159578 (Peter MacCallum Cancer Centre, 2015)
The whole screen tested about 18,000 reagents; this is a part drawn at random. About 1,030 of all reagents (5.7%) were called active. 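Inactive calls also include pools with fewer than 3300 nuclei, whose migration was not assessed.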 The raw values are shown without normalisation. Reagent sequences are not shown.

- Purpose: 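Genome-wide hunt for genes controlling movement of lymphatic endothelial cells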 (primary screen)
- Cells: human lymphatic endothelial cells
- Reagent: siRNA pool against human genes, 40 nM
- Timing: 48 h after transfection
- Read-out: 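High-content imaging of dye-stained cells in a scratch assay measures filled wound area and nuclei per well; duplicate means given as ratio to mock and robust z-score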
- Direction: migration robust z-score: higher = faster migration into the scratch; migration relative to mock: higher = more scratch area covered than mock; nuclei per well: higher = more cells in the well
- Call rule: 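Migration changed when robust z exceeds 2 or falls below -2 and mean nuclei number is at least 3300; otherwise not called changed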
- Calls: active = migration changed; inactive = no migration change, or too few cells

Gene	migration robust z-score	migration class with cell-count check	migration relative to mock	nuclei per well, duplicate mean	activity call
ZNF703 (GeneID 80139)	-3.09	migration z below -2; enough cells	0.1	3375	active
BABAM1 (GeneID 29086)	-0.06	migration z between -2 and 2; enough cells	0.87	5368	inactive
ZNF235 (GeneID 9310)	-0.16	migration z between -2 and 2; enough cells	0.84	6023	inactive
CERS3 (GeneID 204219)	-0.11	migration z between -2 and 2; enough cells	0.86	5467	inactive
DYNC2I2 (GeneID 89891)	-1.06	migration z between -2 and 2; enough cells	0.6	5364	inactive
COMMD1 (GeneID 150684)	0.26	migration z between -2 and 2; enough cells	0.96	5550	inactive
FABP4 (GeneID 2167)	-0.57	migration z between -2 and 2; enough cells	0.7	6099	inactive
EMC6 (GeneID 83460)	1.16	migration z between -2 and 2; enough cells	1.19	5772	inactive
GPR158 (GeneID 57512)	0.08	migration z between -2 and 2; enough cells	0.82	6184	inactive
KCNE4 (GeneID 23704)	0.49	migration z between -2 and 2; enough cells	0.9	4735	inactive
LCE3E (GeneID 353145)	-0.6	migration z between -2 and 2; enough cells	0.73	6258	inactive
PEX1 (GeneID 5189)	0.6	migration z between -2 and 2; enough cells	0.92	5900	inactive
CDH20 (GeneID 28316)	1.1	migration z between -2 and 2; enough cells	1.17	6130	inactive
FGB (GeneID 2244)	-0.31	migration z between -2 and 2; enough cells	0.74	4178	inactive
MED6 (GeneID 10001)	-1.03	migration z between -2 and 2; enough cells	0.6	5286	inactive
CLEC4C (GeneID 170482)	0.69	migration z between -2 and 2; enough cells	1.06	4132	inactive
TRARG1 (GeneID 286753)	0.88	migration z between -2 and 2; enough cells	1.12	5458	inactive
MB21D2 (GeneID 151963)	1.58	migration z between -2 and 2; enough cells	1.29	6330	inactive
KCNF1 (GeneID 3754)	-1.5	migration z between -2 and 2; enough cells	0.52	4357	inactive
SAMD12 (GeneID 401474)	1	migration z between -2 and 2; enough cells	1.15	5542	inactive
BCO1 (GeneID 53630)	1.25	migration z between -2 and 2; enough cells	1.04	5982	inactive
OR10A5 (GeneID 144124)	0.25	migration z between -2 and 2; enough cells	0.94	5239	inactive
MINDY1 (GeneID 55793)	-0.88	migration z between -2 and 2; enough cells	0.66	6046	inactive

Entries listed so far called active, once more:
Gene	migration robust z-score	migration class with cell-count check	migration relative to mock	nuclei per well, duplicate mean	activity call
ZNF703 (GeneID 80139)	-3.09	migration z below -2; enough cells	0.1	3375	active
